Test results: PMC11640418
Results are given in words; binding and its absence hold for the method and conditions named. In cells and extracts the contact can be indirect. Some results given as binding are weak or reduced against the parent protein; the word gives no strength.

Protein sequences, listed by entry. Tags and fused reporters are not part of them. Lines headed by an entry give the natural chain unless they say otherwise; changes in a name come on top.
UniProt Q0ZGT2: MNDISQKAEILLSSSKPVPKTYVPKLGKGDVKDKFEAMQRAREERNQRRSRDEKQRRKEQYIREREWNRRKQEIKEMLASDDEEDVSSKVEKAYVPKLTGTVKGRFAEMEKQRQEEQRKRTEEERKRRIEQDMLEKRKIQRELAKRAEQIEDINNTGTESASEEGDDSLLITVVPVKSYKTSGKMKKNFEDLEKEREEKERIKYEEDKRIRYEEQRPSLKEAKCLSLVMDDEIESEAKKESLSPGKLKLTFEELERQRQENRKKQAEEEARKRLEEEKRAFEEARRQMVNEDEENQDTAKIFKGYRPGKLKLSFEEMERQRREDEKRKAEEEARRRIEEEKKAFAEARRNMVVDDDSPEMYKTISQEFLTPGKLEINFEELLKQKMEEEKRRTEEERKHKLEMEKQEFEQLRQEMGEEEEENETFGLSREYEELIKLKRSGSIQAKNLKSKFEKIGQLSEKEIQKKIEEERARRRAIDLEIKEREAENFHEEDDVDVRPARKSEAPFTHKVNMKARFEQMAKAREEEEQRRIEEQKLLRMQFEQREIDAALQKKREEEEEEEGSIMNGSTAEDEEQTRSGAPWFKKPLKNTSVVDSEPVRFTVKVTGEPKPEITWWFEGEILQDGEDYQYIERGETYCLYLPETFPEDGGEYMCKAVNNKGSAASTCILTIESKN

Legend:
[1] = target: His-tagged full-length human nexilin (human) (UniProt Q0ZGT2); assay: pull-down; His-nexilin bound to Ni-NTA; lysates of HEK-293 cells overexpressing Flag-tagged nexilin variants; Flag and actin blots; only the target purified
[2] = target: His-tagged full-length human nexilin (human) (UniProt Q0ZGT2); assay: pull-down; His-nexilin bound to Ni-NTA resin; GST-nexilin variants as bacterial lysate, 2 h, 4 °C, PD buffer (50 mM NaCl, 10 mM Tris/HCl pH 7.5, 0.1% Triton X-100) with 20 mM imidazole; GST blot; only the target purified

binding [1] | binding [2] | Substance
binds |  | Flag-tagged full-length human nexilin (from UniProt Q0ZGT2-1 1-675)
 | binds | GST-tagged full-length human nexilin (from UniProt Q0ZGT2-1 1-675)
